The supplement of paper PMC10849652
The list shows a part of the results.

Chains of the proteins cited; added tags and fusions are not shown. Lines headed by an entry give the natural chain unless they say otherwise; changes in a name come on top.
UniProt P01037: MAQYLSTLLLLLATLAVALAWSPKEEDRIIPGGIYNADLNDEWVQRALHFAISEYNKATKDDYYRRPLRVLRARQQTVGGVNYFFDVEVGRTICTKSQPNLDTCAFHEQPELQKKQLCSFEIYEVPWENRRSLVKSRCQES
UniProt Q92564: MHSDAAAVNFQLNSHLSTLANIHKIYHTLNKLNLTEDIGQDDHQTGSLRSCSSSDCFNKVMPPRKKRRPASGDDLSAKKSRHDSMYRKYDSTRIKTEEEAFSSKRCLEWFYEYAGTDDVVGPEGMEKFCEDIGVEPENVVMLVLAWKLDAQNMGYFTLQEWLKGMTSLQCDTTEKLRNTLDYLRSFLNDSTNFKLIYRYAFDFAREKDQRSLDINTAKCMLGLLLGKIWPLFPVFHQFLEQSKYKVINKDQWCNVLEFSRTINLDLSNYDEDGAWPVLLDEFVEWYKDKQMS
UniProt Q2TBE0: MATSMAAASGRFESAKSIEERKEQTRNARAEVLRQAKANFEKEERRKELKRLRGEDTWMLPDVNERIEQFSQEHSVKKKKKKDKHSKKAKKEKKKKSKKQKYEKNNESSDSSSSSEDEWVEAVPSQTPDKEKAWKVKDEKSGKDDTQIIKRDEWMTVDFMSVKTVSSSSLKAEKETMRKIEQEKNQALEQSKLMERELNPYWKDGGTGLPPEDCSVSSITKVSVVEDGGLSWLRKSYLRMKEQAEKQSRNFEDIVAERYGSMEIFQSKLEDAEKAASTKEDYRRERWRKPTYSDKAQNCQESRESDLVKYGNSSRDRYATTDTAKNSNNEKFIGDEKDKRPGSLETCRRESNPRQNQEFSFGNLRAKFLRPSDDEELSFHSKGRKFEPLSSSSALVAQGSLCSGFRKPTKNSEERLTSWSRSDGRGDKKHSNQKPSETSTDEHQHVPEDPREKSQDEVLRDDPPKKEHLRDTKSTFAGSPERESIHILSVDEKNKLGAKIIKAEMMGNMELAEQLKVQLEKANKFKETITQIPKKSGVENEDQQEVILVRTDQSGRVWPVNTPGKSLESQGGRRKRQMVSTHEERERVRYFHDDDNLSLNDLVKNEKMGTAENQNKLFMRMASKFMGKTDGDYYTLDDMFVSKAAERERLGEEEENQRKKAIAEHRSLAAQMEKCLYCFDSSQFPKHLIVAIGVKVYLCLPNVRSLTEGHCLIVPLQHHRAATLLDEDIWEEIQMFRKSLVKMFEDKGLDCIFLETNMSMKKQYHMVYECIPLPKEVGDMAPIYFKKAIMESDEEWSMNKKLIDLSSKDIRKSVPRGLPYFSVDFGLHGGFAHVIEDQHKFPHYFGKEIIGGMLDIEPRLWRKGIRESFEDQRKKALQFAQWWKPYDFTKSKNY
UniProt Q9P0U4, whole entry, looked up: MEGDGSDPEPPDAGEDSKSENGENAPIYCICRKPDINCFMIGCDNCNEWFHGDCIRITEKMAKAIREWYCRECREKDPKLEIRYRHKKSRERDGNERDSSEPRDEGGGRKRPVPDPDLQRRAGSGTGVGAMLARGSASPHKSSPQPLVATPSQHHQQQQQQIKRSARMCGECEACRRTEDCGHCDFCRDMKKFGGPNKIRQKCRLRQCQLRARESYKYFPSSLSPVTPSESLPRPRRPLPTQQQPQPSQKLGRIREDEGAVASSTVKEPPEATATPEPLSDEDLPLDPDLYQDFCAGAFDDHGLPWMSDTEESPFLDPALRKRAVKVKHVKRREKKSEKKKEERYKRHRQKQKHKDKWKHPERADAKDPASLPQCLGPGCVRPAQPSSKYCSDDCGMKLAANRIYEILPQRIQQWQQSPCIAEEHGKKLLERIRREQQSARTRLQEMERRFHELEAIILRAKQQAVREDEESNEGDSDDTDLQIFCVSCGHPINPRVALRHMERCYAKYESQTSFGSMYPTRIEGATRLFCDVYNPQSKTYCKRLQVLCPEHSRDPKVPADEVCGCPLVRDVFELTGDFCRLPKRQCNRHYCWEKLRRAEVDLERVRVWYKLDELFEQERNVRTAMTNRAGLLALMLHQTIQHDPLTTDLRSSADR
UniProt Q5H9S7: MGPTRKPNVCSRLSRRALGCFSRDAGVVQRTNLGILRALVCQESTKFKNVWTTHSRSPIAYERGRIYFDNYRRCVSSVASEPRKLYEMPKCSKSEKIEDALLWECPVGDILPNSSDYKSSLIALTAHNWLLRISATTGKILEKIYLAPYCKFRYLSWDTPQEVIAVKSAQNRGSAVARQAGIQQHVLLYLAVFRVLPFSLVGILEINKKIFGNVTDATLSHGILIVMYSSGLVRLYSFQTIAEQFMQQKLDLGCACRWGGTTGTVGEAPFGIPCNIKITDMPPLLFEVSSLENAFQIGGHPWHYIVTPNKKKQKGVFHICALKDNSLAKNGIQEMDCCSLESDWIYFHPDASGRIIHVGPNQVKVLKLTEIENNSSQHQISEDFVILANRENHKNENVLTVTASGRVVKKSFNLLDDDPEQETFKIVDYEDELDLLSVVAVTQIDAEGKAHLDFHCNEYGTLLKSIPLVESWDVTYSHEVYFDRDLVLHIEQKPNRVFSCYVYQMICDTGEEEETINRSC
UniProt P25774, whole entry, looked up: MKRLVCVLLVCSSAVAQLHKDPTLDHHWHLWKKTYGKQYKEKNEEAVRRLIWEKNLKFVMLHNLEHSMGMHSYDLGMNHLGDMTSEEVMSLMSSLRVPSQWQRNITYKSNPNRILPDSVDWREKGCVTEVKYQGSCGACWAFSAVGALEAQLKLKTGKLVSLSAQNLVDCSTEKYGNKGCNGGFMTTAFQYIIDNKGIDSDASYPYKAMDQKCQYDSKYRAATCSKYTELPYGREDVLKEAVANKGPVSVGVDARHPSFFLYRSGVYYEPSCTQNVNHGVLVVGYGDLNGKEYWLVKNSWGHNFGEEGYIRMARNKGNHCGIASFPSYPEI
UniProt Q15438: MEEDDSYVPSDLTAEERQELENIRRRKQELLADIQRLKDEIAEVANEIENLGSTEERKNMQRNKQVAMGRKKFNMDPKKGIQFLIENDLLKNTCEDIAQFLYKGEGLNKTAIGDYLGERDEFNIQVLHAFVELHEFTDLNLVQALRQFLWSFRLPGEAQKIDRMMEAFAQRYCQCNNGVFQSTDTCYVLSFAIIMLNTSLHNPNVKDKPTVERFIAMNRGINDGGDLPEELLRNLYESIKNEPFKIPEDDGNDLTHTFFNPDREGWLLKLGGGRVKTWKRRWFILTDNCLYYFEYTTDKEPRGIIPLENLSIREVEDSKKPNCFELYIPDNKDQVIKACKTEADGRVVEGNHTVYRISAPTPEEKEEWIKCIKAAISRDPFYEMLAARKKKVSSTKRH
UniProt P01034: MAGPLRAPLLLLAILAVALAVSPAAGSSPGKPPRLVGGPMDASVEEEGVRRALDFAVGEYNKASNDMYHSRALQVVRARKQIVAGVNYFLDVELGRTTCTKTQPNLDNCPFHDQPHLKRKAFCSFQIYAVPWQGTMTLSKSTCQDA
UniProt Q9NSA3: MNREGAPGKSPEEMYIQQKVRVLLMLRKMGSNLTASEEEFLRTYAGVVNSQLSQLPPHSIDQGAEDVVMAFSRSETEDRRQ
UniProt Q6VVX0: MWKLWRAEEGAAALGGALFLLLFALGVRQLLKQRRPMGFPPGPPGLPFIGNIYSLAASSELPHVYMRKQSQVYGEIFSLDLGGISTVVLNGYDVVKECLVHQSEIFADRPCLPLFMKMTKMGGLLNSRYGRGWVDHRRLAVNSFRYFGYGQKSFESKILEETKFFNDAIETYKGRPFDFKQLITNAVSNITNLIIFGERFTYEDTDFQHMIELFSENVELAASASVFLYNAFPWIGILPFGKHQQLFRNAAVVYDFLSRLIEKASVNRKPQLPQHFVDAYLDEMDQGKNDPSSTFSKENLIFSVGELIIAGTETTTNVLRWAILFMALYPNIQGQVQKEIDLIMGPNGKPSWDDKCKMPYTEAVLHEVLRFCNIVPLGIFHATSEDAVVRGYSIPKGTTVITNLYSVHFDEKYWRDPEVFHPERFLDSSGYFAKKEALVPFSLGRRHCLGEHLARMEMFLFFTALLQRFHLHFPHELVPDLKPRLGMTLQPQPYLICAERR
UniProt Q9Y5B0: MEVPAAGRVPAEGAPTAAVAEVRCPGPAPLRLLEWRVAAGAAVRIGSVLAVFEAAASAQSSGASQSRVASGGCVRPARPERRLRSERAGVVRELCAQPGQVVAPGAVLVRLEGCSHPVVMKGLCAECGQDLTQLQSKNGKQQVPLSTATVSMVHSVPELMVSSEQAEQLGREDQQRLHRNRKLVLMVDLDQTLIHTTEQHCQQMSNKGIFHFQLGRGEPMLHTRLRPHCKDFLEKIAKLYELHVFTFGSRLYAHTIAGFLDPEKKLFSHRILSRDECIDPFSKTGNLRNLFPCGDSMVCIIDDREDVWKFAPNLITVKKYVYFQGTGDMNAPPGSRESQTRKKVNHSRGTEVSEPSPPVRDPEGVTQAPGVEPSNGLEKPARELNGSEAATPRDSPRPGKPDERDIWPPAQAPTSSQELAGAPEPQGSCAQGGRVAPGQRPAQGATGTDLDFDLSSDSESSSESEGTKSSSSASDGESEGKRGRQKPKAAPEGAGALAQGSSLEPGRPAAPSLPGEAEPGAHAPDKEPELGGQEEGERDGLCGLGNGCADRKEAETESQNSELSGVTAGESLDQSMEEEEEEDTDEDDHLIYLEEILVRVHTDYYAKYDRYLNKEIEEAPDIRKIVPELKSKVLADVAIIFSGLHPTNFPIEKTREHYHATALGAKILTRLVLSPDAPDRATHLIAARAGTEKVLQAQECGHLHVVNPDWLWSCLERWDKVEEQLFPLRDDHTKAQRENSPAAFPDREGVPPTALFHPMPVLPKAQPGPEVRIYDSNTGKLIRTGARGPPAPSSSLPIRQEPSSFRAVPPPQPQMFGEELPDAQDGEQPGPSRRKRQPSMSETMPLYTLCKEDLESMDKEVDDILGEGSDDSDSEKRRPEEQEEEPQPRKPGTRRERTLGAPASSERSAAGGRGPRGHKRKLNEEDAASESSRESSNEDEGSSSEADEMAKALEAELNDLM
UniProt Q05D32: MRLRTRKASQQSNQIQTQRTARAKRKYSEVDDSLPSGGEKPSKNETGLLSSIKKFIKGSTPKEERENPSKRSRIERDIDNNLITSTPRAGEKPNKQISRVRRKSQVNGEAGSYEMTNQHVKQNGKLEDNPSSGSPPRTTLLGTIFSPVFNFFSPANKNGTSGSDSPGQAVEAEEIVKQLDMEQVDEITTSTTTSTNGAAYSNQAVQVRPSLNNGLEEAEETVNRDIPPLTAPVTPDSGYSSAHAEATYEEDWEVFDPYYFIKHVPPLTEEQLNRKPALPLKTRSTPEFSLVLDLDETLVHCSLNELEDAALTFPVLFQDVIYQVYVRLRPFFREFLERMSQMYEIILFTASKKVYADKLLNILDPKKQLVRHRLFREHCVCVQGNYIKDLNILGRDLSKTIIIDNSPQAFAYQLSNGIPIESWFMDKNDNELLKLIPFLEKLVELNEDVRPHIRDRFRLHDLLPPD
UniProt Q07973: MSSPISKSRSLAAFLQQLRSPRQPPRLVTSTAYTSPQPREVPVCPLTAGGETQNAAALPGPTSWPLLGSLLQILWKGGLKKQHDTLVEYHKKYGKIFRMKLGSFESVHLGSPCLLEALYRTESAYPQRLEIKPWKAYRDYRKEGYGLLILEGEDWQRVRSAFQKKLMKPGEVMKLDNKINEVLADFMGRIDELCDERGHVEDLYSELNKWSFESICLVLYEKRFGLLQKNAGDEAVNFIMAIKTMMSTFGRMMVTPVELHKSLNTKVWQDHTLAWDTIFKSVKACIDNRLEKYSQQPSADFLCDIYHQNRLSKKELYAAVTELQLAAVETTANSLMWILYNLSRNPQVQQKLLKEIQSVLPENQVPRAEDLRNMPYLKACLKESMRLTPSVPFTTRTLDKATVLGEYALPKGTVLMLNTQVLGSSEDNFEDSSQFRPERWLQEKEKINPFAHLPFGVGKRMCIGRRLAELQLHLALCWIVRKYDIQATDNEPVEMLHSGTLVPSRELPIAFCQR
UniProt Q9GZU7: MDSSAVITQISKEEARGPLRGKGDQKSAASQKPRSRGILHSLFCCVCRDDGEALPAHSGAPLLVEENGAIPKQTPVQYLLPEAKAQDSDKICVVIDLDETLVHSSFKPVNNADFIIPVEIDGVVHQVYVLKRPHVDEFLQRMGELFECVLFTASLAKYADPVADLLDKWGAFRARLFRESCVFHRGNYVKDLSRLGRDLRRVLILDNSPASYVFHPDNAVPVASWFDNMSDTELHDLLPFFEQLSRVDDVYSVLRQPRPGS
UniProt Q9NXE8: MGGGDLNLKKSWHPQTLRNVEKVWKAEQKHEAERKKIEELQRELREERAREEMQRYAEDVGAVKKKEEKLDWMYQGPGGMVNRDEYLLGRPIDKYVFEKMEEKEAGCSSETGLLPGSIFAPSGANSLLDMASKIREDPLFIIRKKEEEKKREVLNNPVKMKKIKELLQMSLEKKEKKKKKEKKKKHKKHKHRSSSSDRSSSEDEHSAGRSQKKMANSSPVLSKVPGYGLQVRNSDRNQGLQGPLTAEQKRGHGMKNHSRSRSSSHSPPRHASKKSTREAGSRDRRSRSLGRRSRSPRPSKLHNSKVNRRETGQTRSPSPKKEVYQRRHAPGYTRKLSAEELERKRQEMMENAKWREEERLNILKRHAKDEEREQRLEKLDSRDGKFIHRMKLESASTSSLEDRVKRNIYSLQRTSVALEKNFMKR

Experiments:
Experiment in all cases: log2 fold change, soluble protein after heating vs DMSO (PISA); higher = thermal stabilisation; K562 cells, 10 uM, 30 min; active = over 0.2 and 3.5 SD of the protein, either way, in both replicates (recomputed)
[1] = compound: CC1=C2C(=CC=C1)N=C(N(C2=O)C3=CC=CC=C3C)CN4C=NC5=C(N=CN=C54)N
Summary of the method: (§1)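 K562 cells at 2×10^6 cells/mL were treated for 30 min with 10 μM compound, and aliquots were heated for 3 min over 48°C-58°C before pooling. Extraction used PBS with 0.5% NP-40 at 4°C, and soluble protein was the supernatant after 21,000xg for 90 min, measured by TMTpro 16plex LC-MS/MS with channel sums equalised. Thermal stability values, relative to control samples and from duplicates, are log2 fold changes.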

[2] = compound: C1=CC=C(C=C1)[C@H](COC2=CC3=C(C=C2)NC(=O)N3)NC(=O)C4=CC=CN(C4=O)CC5=CC(=C(C=C5)F)F
Summary of the method: as §1

[3] = compound: Cc1sc2c(c1C)C(c1ccc(Cl)cc1)=N[C@@H](CC(=O)OC(C)(C)C)c1nnc(C)n1-2
Summary of the method: as §1

[4] = compound: CC1=C(SC2=C1C(=N[C@H](C3=NN=C(N32)C)CC(=O)N)C4=CC=C(C=C4)Cl)C
Summary of the method: as §1

[5] = compound: c1ccc([C@@H]2C[C@H]2NC2CCNCC2)cc1
Summary of the method: as §1

Target	log2 fold change [1]	log2 fold change [2]	log2 fold change [3]	log2 fold change [4]	log2 fold change [5]
CYREN (UniProt Q9BWK5)	inactive: -0.008	–	–	–	–
CST1 (UniProt P01037)	inactive: 0.027	inactive: 0.174	–	–	–
CUL7 isoform 2 (UniProt Q14999)	–	–	inactive: 0.107	–	–
CYP2S1 isoform 2 (UniProt Q96SQ9)	–	inactive: 0.111	–	inactive: 0.145	inactive: -0.132
CSRP2 (UniProt Q16527)	inactive: -0.012	–	inactive: 0.087	inactive: -0.187	inactive: 0.092
DCUN1D4 isoform 3 (UniProt Q92564)	inactive: 0.107	–	inactive: 0.006	inactive: 0.08	inactive: 0.013
CWF19L2 (UniProt Q2TBE0)	–	–	inactive: 0.028	inactive: -0.169	inactive: 0.135
CXXC1 isoform 2 (UniProt Q9P0U4)	inactive: 0.221	–	inactive: 0.049	inactive: -0.014	inactive: 0.057
DCAF17 (UniProt Q5H9S7)	inactive: -0.041	–	–	–	–
CTSS (UniProt P25774)	inactive: -0.033	–	inactive: -0.192	inactive: -0.004	inactive: 0.037
CTNS isoform 2 (UniProt O60931)	inactive: -0.048	–	–	inactive: 0.108	inactive: -0.061
DCUN1D5 (UniProt Q9BTE7)	inactive: 0.077	–	inactive: -0.261	–	–
DCP2 (UniProt Q8IU60)	inactive: -0.044	–	inactive: 0.077	inactive: -0.121	inactive: 0.068
CYBRD1 (UniProt Q53TN4)	inactive: -0.012	–	–	inactive: -0.064	inactive: 0.007
CYP4V2 (UniProt Q6ZWL3)	inactive: 0.059	–	–	inactive: 0.063	inactive: -0.027
CYB561A3 isoform 2 (UniProt Q8NBI2)	–	inactive: 0.033	inactive: -0.075	inactive: -0.009	inactive: 0.002
CYTH2 (UniProt Q99418)	–	inactive: -0.076	inactive: -0.136	–	–

Exported as a markdown table: part of the list above.

| Target | log2 fold change [1] | log2 fold change [2] | log2 fold change [3] | log2 fold change [4] | log2 fold change [5] |
| --- | --- | --- | --- | --- | --- |
| DCP2 (UniProt Q8IU60) | inactive: -0.044 | – | inactive: 0.077 | inactive: -0.121 | inactive: 0.068 |
| CYBRD1 (UniProt Q53TN4) | inactive: -0.012 | – | – | inactive: -0.064 | inactive: 0.007 |

(further entries)

Target	log2 fold change [1]	log2 fold change [2]	log2 fold change [3]	log2 fold change [4]	log2 fold change [5]
CYTH1 (UniProt Q15438)	inactive: 0.236	–	inactive: 0.115	–	–
CST3 (UniProt P01034)	inactive: 0.059	inactive: -0.022	inactive: -0.059	inactive: 0.03	inactive: -0.039
DCBLD1 (UniProt Q8N8Z6)	–	–	–	inactive: 0.07	inactive: 0.02
DAAM1 (UniProt Q9Y4D1)	–	–	–	inactive: -0.37	inactive: 0.259
CYREN isoform 4 (UniProt Q9BWK5)	inactive: 0.052	inactive: 0.347	–	–	–
CTNNBIP1 (UniProt Q9NSA3)	–	–	–	inactive: 0.127	inactive: -0.105
CYP2R1 (UniProt Q6VVX0)	–	inactive: 0.068	inactive: 0.055	inactive: -0.01	inactive: -0.134
CTDP1 (UniProt Q9Y5B0)	–	–	inactive: 0.151	inactive: -0.116	inactive: 0.072
CTDNEP1 (UniProt O95476)	inactive: 0.095	–	inactive: -0.496	inactive: 0.095	inactive: -0.067
CTDSPL2 (UniProt Q05D32)	–	–	–	inactive: 0.499	inactive: -0.142
CTNNBL1 (UniProt Q8WYA6)	inactive: 0.17	inactive: 0.029	–	–	–
DCP1B (UniProt Q8IZD4)	–	inactive: 0.048	inactive: 0.061	–	–
CST6 (UniProt Q15828)	–	–	inactive: -0.165	–	–
CYP24A1 (UniProt Q07973)	inactive: -0.175	inactive: 0.17	inactive: 0.266	–	–
CTDSP1 (UniProt Q9GZU7)	inactive: -0.114	–	inactive: -0.065	–	–
CWC25 (UniProt Q9NXE8)	–	inactive: -0.017	inactive: 0.198	inactive: -0.297	inactive: 0.125
